PubChem BioAssay AID1259254 | NCATS | 2017

- Purpose: 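Genome-wide screen for genes that prevent DNA re-replication in cancer cells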 (primary screen)
- System: human HCT116 colorectal cancer cells
- Knock-down reagent: single siRNA against human genes
- Duration: 3 days
- Detection: 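Imaged Hoechst DNA stain sorts each cell into a cycle phase by DNA amount; per plate, G2 fraction set to 0% for non-targeting and 100% for GMNN siRNA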
- Direction: G2 robust z-score and G2 cells, % of GMNN control: higher = more G2 cells, more excess DNA replication; raw share of cells in G2: higher = larger share of cells with G2 DNA content
- Hit rule: 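Active siRNAs have a G2 robust z of 5 or more median absolute deviations over the median, which in these data means about 38% or higher of GMNN control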
In all, the deposit lists about 59,000 reagents; shown is a random part of them. Of all reagents, about 1,550 (2.6%) got an active call. 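G2 share is only a proxy for re-replication; each gene was hit by three separate siRNAs, and active genes were retested.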 Raw values are not corrected between plates. Entries without a mark were called inactive. Reagents against one gene are numbered here. Not stated in the record: the amount of reagent.

Gene	siRNA no.	G2 robust z-score	G2 cells, % of GMNN control	raw share of cells in G2 (%)
S100A13 (S100 calcium binding protein A13)	1	0.504	6.52	6.05
S100A13 (S100 calcium binding protein A13)	2	0.225	4.55	6.98
S100A13 (S100 calcium binding protein A13)	3	1.88	16.2	8.97
OR6X1 (olfactory receptor family 6 subfamily X member 1)	1	0.82	8.74	6.77
OR6X1 (olfactory receptor family 6 subfamily X member 1)	2	4.6	35.3	18.8
OR6X1 (olfactory receptor family 6 subfamily X member 1)	3	0.0852	3.57	6.16
KPTN (kaptin, actin binding protein)	1	5.19 (active)	39.5	20.5
KPTN (kaptin, actin binding protein)	2	2.07	17.5	11.4
KPTN (kaptin, actin binding protein)	3	-0.423	-0.0107	3.17
CDC37 (cell division cycle 37, HSP90 cochaperone)	1	-0.317	0.739	4.12
CDC37 (cell division cycle 37, HSP90 cochaperone)	2	1.08	10.6	7.69
CDC37 (cell division cycle 37, HSP90 cochaperone)	3	1.14	11	10.8
IGF2-AS (IGF2 antisense RNA)	1	4.03	31.3	15.8
IGF2-AS (IGF2 antisense RNA)	2	-0.247	1.23	5.01
IGF2-AS (IGF2 antisense RNA)	3	-0.662	-1.69	2.72
EDEM1 (ER degradation enhancing alpha-mannosidase like protein 1)	1	0.581	7.05	5.87
EDEM1 (ER degradation enhancing alpha-mannosidase like protein 1)	2	-0.467	-0.318	5.85
EDEM1 (ER degradation enhancing alpha-mannosidase like protein 1)	3	0.685	7.78	6.6
CDV3 (CDV3 homolog)	1	-0.51	-0.623	4.28
CDV3 (CDV3 homolog)	2	0.225	4.55	6.02
CDV3 (CDV3 homolog)	3	-0.748	-2.3	2.4
UBXN7 (UBX domain protein 7)	1	0.753	8.26	7.52
UBXN7 (UBX domain protein 7)	2	-0.485	-0.448	3.75
UBXN7 (UBX domain protein 7)	3	-0.21	1.49	3.82
PHLDB2 (pleckstrin homology like domain family B member 2)	1	-0.569	-1.04	3.64
PHLDB2 (pleckstrin homology like domain family B member 2)	2	0.137	3.93	4.23
PHLDB2 (pleckstrin homology like domain family B member 2)	3	-0.145	1.95	3.54
DUSP4 (dual specificity phosphatase 4)	1	0.312	5.16	6.47
DUSP4 (dual specificity phosphatase 4)	2	1.22	11.6	7.79
DUSP4 (dual specificity phosphatase 4)	3	1.08	10.5	6.67
DNAH14 (dynein axonemal heavy chain 14)	1	-0.523	-0.714	3.91
DNAH14 (dynein axonemal heavy chain 14)	2	-1	-4.08	1.81
DNAH14 (dynein axonemal heavy chain 14)	3	-0.542	-0.843	2.27
DNAH14 (dynein axonemal heavy chain 14)	4	-1.18	-5.36	1.68
DNAH14 (dynein axonemal heavy chain 14)	5	-0.779	-2.51	2.12
DNAH14 (dynein axonemal heavy chain 14)	6	1.53	13.8	7.11
PLK3 (polo like kinase 3)	1	-1	-4.09	4.03
PLK3 (polo like kinase 3)	2	-1.2	-5.51	3.79
PLK3 (polo like kinase 3)	3	0.261	4.8	5.72
RPIA (ribose 5-phosphate isomerase A)	1	-0.69	-1.89	3.22
RPIA (ribose 5-phosphate isomerase A)	2	4.13	32	19.2
RPIA (ribose 5-phosphate isomerase A)	3	0.374	5.6	6.03
USO1 (USO1 vesicle transport factor)	1	-0.187	1.65	4.08
USO1 (USO1 vesicle transport factor)	2	-0.408	0.0952	6.03
USO1 (USO1 vesicle transport factor)	3	-0.854	-3.04	2.07
SNX18 (sorting nexin 18)	1	-0.538	-0.815	2.81
SNX18 (sorting nexin 18)	2	-0.398	0.17	3.22
SNX18 (sorting nexin 18)	3	-0.547	-0.881	3.22
RFX4 (regulatory factor X4)	1	-0.508	-0.606	3.22
RFX4 (regulatory factor X4)	2	-0.745	-2.28	3.78
RFX4 (regulatory factor X4)	3	0.605	7.23	5.73
SNRK (SNF related kinase)	1	0	2.97	6.27
SNRK (SNF related kinase)	2	-1.17	-5.26	3.95
SNRK (SNF related kinase)	3	0.373	5.59	5.47
NCOA4 (nuclear receptor coactivator 4)	1	-0.897	-3.34	2.41
NCOA4 (nuclear receptor coactivator 4)	2	-1.22	-5.6	3.49
NCOA4 (nuclear receptor coactivator 4)	3	-0.545	-0.864	2.98
ZNF544 (zinc finger protein 544)	1	-0.158	1.86	3.45
ZNF544 (zinc finger protein 544)	2	-1.06	-4.51	3.87
ZNF544 (zinc finger protein 544)	3	1.54	13.8	7.97
FTCDNL1 (formiminotransferase cyclodeaminase N-terminal like)	1	1.15	11	7.78
FTCDNL1 (formiminotransferase cyclodeaminase N-terminal like)	2	-0.725	-2.13	2.32
FTCDNL1 (formiminotransferase cyclodeaminase N-terminal like)	3	0.0348	3.21	5.48
LOC728684 (retired record)	1	1.42	12.9	7.49
LOC728684 (retired record)	2	2.09	17.7	10
LOC728684 (retired record)	3	0.546	6.81	6.54
PYCR1 (pyrroline-5-carboxylate reductase 1)	1	1.29	12	8.14
PYCR1 (pyrroline-5-carboxylate reductase 1)	2	-0.0881	2.35	5.58
PYCR1 (pyrroline-5-carboxylate reductase 1)	3	-0.512	-0.633	4.76
DOK2 (docking protein 2)	1	-0.313	0.768	5.47
DOK2 (docking protein 2)	2	-1.24	-5.76	1.61
DOK2 (docking protein 2)	3	1.68	14.8	8.56
GALC (galactosylceramidase)	1	-1.27	-5.94	3.08
GALC (galactosylceramidase)	2	-0.0307	2.75	6.31
GALC (galactosylceramidase)	3	0.335	5.33	5.56
HNRNPLL (heterogeneous nuclear ribonucleoprotein L like)	1	-1.02	-4.17	3.73
HNRNPLL (heterogeneous nuclear ribonucleoprotein L like)	2	0.753	8.27	8.51
HNRNPLL (heterogeneous nuclear ribonucleoprotein L like)	3	0.915	9.41	8.03
LRBA-AS1 (LRBA antisense RNA 1)	1	-0.889	-3.29	1.97
LRBA-AS1 (LRBA antisense RNA 1)	2	0.382	5.66	6.32
LRBA-AS1 (LRBA antisense RNA 1)	3	0.165	4.13	4.61
OR2G6 (olfactory receptor family 2 subfamily G member 6)	1	-0.831	-2.88	2.76
OR2G6 (olfactory receptor family 2 subfamily G member 6)	2	-0.809	-2.73	2.43
OR2G6 (olfactory receptor family 2 subfamily G member 6)	3	-1.11	-4.86	2.77
GNAI3 (G protein subunit alpha i3)	1	0.261	4.8	7.09
GNAI3 (G protein subunit alpha i3)	2	-0.301	0.851	3.96
GNAI3 (G protein subunit alpha i3)	3	0.16	4.09	6.72

No new results follow: entries from further up.
Gene	siRNA no.	G2 robust z-score	G2 cells, % of GMNN control	raw share of cells in G2 (%)
LOC728684 (retired record)	3	0.546	6.81	6.54
PYCR1 (pyrroline-5-carboxylate reductase 1)	1	1.29	12	8.14
PYCR1 (pyrroline-5-carboxylate reductase 1)	2	-0.0881	2.35	5.58
PYCR1 (pyrroline-5-carboxylate reductase 1)	3	-0.512	-0.633	4.76
DOK2 (docking protein 2)	1	-0.313	0.768	5.47
DOK2 (docking protein 2)	2	-1.24	-5.76	1.61
DOK2 (docking protein 2)	3	1.68	14.8	8.56
GALC (galactosylceramidase)	1	-1.27	-5.94	3.08
GALC (galactosylceramidase)	2	-0.0307	2.75	6.31
GALC (galactosylceramidase)	3	0.335	5.33	5.56
HNRNPLL (heterogeneous nuclear ribonucleoprotein L like)	1	-1.02	-4.17	3.73
HNRNPLL (heterogeneous nuclear ribonucleoprotein L like)	2	0.753	8.27	8.51
